Results deposited as PubChem BioAssay AID1259275 (Sanger Institute, 2017).
The whole screen tested 794 reagents; this is a part drawn at random. 13 of all reagents (1.6%) were called active. 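Calls mark knock-downs lethal by themselves, not drug synergy; drugs went in a day after transfection, with DMSO as vehicle.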 Not all columns of the deposit are shown. No sequences are given here. Not stated in the record: the amount of reagent, the time to read-out.

Purpose: 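Kinase and colorectal cancer genes needed for cancer cell survival, with or without drugs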 (primary screen)
System: COLO320HSR human colorectal cancer cells
Reagent: siRNA pool against human genes
Treatment: anchor drug added one day after transfection: BYL719 at 1 µM, cetuximab at 5 µg/ml or trametinib at 10 nM; DMSO as vehicle arm
Read-out: 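Replicate-mean viability versus non-targeting pool control, robust z-score without drug, and per-drug synergy scores for BYL719 at 1 µM, cetuximab at 5 µg/ml and trametinib at 10 nM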
Reading the numbers: robust z-score, siRNA alone: higher = more viable cells; strongly negative means essential
Call rule: 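Essential means the knock-down by itself gives a robust z-score lower than -3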
Calls: active = essential (siRNA alone); inactive = no change (siRNA alone)

robust z-score, siRNA alone | outcome | target gene
0.726 | inactive | MAP3K21
-0.646 | inactive | PMVK
0.726 | inactive | MAPK9
-0.0492 | inactive | PIK3C2B
0.726 | inactive | EPHA2
-4.35 | active | NUP98
0.726 | inactive | PSKH2
-0.0498 | inactive | PTK2
-0.5 | inactive | FRK
-1.1 | inactive | AKAP9
-3.14 | active | RUNX1
-1.23 | inactive | MAPK3
0.726 | inactive | PRPS2
0.726 | inactive | NEK6
-0.25 | inactive | PACSIN1
-0.993 | inactive | PDK2
-1.37 | inactive | RIPK1
0.726 | inactive | MAP3K8
0.726 | inactive | MAGI3
-0.196 | inactive | CDADC1
0.726 | inactive | CSNK2B
0.467 | inactive | PKN2
0.00467 | inactive | DDR1
0.726 | inactive | NME3
0.726 | inactive | MET
-1.8 | inactive | CDK18
0.726 | inactive | NME4
0.0584 | inactive | TSSK2
-1.53 | inactive | DMPK
-1.75 | inactive | PKN3
0.378 | inactive | IGF2R
0.726 | inactive | PIM2
0.726 | inactive | CKS2

5 successive entries from above, quoted:
robust z-score, siRNA alone | outcome | target gene
0.726 | inactive | MET
-1.8 | inactive | CDK18
0.726 | inactive | NME4
0.0584 | inactive | TSSK2
-1.53 | inactive | DMPK

Next results:
robust z-score, siRNA alone | outcome | target gene
-1.21 | inactive | TAB1
0.726 | inactive | RPS6KL1
-0.215 | inactive | PTPN11
-0.0155 | inactive | PDXK
0.277 | inactive | LATS1
0.0355 | inactive | PIK3C2A
0.639 | inactive | CAMK1
-0.524 | inactive | RIOK3
0.628 | inactive | FXN
0.726 | inactive | AXL
-0.00454 | inactive | STK40
-0.497 | inactive | TRIO
0.726 | inactive | CDKN1B
-1.46 | inactive | IRAK3
0.143 | inactive | CILK1
-0.963 | inactive | BMPR2
-0.0224 | inactive | AKT2
-0.209 | inactive | LCK
0.726 | inactive | UCK1
-0.194 | inactive | STK33
-0.236 | inactive | CLSPN
-1.3 | inactive | PBK
0.726 | inactive | CAMK4
0.028 | inactive | CHEK2
0.726 | inactive | HIPK3
0.726 | inactive | CALM1
0.726 | inactive | MAPK7
0.726 | inactive | PKIB
0.726 | inactive | ULK1
-0.268 | inactive | NEK7
